Holding throughout (assay): DAPPL (digital affinity profiling via proximity ligation, sequencing)
Details in all cases: 10 mM Tris-HCl pH 7.5, 50 mM NaCl, 1 mM DTT, 4% glycerol, room temperature, 30 min; GST-TFs on glutathione beads, 16-mer random dsDNA library, 0.1% …; high values mean tight binding; double strand, one strand shown; scale: fold enrichment (6-mer frequency, TF over GST control)

Chains of the proteins cited; added tags and fusions are not shown. Lines headed by an entry give the natural chain unless they say otherwise; changes in a name come on top.
UniProt P32519: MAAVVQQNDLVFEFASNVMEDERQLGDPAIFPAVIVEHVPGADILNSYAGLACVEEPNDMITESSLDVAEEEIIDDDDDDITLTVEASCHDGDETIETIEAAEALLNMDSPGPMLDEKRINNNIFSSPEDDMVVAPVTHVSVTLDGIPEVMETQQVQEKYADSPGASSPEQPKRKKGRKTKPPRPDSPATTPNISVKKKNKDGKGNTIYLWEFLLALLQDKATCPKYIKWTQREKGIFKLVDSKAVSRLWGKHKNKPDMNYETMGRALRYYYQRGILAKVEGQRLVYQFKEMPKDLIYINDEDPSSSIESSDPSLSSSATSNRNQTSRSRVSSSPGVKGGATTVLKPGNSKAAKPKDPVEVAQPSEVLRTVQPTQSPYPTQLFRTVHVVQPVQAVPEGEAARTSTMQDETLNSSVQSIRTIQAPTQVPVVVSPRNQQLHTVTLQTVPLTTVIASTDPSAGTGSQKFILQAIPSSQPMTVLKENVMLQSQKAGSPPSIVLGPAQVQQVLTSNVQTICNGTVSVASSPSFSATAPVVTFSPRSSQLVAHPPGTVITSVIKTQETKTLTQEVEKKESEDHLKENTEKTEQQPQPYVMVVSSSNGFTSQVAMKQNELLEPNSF

For one experiment, the target named is ELF1 (UniProt P32519).
A further experiment addresses T1, ETV4 (UniProt P43268).
T1 sequence: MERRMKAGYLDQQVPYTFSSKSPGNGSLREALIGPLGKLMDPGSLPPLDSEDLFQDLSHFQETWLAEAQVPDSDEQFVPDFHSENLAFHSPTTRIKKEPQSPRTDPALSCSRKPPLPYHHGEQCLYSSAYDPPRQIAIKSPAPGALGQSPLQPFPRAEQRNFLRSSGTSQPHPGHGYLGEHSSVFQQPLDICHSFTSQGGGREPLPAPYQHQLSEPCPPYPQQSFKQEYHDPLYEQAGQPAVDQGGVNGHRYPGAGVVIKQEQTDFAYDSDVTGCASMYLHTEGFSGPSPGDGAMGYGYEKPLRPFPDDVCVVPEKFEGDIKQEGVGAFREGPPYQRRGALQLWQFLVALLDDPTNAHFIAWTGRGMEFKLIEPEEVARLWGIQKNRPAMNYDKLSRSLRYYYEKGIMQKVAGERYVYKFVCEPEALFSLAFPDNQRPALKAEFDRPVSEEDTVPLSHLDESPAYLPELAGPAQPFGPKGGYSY

Another experiment addresses T2, ERF (UniProt P50548).
T2 sequence: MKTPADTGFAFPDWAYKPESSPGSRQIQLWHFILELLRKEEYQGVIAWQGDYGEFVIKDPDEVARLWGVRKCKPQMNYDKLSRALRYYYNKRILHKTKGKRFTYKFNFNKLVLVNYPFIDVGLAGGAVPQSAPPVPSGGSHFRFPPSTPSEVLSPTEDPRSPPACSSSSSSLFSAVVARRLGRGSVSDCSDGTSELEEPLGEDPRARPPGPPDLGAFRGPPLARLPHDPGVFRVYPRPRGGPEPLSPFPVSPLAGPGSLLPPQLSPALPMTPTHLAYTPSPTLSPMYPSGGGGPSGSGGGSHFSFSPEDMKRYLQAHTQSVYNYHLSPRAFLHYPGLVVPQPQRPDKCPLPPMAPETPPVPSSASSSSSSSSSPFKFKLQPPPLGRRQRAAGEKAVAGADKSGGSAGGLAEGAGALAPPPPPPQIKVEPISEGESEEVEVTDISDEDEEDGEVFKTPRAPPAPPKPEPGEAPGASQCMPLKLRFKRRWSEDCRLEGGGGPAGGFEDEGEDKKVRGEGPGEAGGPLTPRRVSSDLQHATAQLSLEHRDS

The list shows a part of the results, in another mix than the full data. For some assays here: At the low end of the ranking, values are background and their order means little. Some of the results follow. For some assays here: Construct or isoform of the protein are uncertain.

Regarding ATATTC, the binding signal was found to be 1.28 with ELF1 and 1.19 with ETV4.

In the case of ATGTTA, the results for the binding signal in the experiment with ELF1 and with ETV4 were 1.22 and 1.27, respectively.

For the sequence AGATGC, the binding signal with ELF1 was 1.04; with ETV4 it was 0.947.

As to ACGCTA, the binding signal with ELF1 and with ETV4 was 1.15 throughout.

Regarding TTACGT, the binding signal in the experiment with ELF1 was 1.07; with ETV4, 1.16.

Turning to TCAACT, the binding signal in the experiment with ELF1 worked out at 1.31; in the experiment with ETV4, 1.32.

As for CAACGA, the binding signal in the experiment with ELF1 is 1.1; in the experiment with ETV4, 1.12; in the experiment with ERF, 1.05.

On to GCTAAA, for which the binding signal was 1.08 in the experiment with ELF1 and 1.09 in the experiment with ETV4.

In the case of TTCATT, the binding signal with ELF1 was determined as 1.24; in the experiment with ETV4, 1.23.

With TAATAT, the results for the binding signal with ELF1, in the experiment with ETV4 and with ERF were 1.27, 1.27 and 1.35, respectively.

As to TTGACT, the binding signal with ELF1 worked out at 1.15; with ETV4, 1.2.

CCCTCT: the binding signal was determined as 1.28 with ELF1 and 1.34 with ETV4.

Take GTAAAT: the results for the binding signal in the experiment with ELF1 and with ETV4 were 1.16 and 1.14, respectively.

For TCTCTT, the binding signal with ELF1 was determined as 1.47; with ETV4, 1.45; with ERF, 1.37.

As to CCATCC, the binding signal amounted to 1.27 in the experiment with ELF1 and 1.25 with ETV4.

Regarding TTGCCA, the figures for the binding signal with ELF1 and with ETV4 were 1.03 and 1.04, respectively.

Turning to CGAGCA, the binding signal with ELF1 amounted to 1.14; with ETV4, 1.15; in the experiment with ERF, 1.17.

Turning to CGCGCT, the binding signal with ELF1 is 1.18; with ETV4, 1.3.

As to TGACTA, the figures for the binding signal with ELF1, with ETV4 and with ERF were 1.09, 1.2 and 1.14, respectively.

Turning to TTGTGT, the values for the binding signal in the experiment with ELF1, in the experiment with ETV4 and in the experiment with ERF were 1.18, 1.16 and 1.4, respectively.

Consider AAGGTT, for which the binding signal in the experiment with ELF1 came to 1.05; with ETV4, 1.01.

With CAGATT, the results for the binding signal with ELF1, in the experiment with ETV4 and with ERF were 1, 1.03 and 0.96, respectively.

For the sequence TTCTGT, the binding signal in the experiment with ELF1 was 1.27; in the experiment with ETV4 it was 1.32.

As to CTCCAT, the binding signal is 1.34 in the experiment with ELF1, 1.35 in the experiment with ETV4 and 1.37 with ERF.

In the case of GCGCCT, the figures for the binding signal in the experiment with ELF1 and with ETV4 were 1.1 and 1.17, respectively.

In the case of CACTGC, the figures for the binding signal with ELF1, with ETV4 and with ERF were 1.44, 1.31 and 1.38, respectively.

With CTACCG, the results for the binding signal with ELF1 and with ETV4 were 1.64 and 1.5, respectively.

For ACGCAC, the binding signal with ELF1 was found to be 1.06; in the experiment with ETV4 it was 1.04.

For TGCCTC, the values for the binding signal with ELF1 and with ETV4 were 1.31 and 1.4, respectively.

Take TGTTCG: the values for the binding signal with ELF1 and with ETV4 were 0.986 and 1.1, respectively.

Turning to CCCTGT, the results for the binding signal with ELF1 and with ETV4 were 1.17 and 1.1, respectively.

Turning to TCTACA, the binding signal in the experiment with ELF1 amounted to 1.28; with ETV4 it was 1.29.

TGATAC: the figures for the binding signal with ELF1 and with ETV4 were 1.14 and 1.07, respectively.

On to GAAAAA, for which the binding signal with ELF1 was found to be 1.1; with ETV4 it was 1.06.

CCTCGC: the binding signal with ELF1 came out at 1.37; in the experiment with ETV4 it was 1.45.

Consider TAAATT, for which the values for the binding signal in the experiment with ELF1 and with ETV4 were 1.27 and 1.26, respectively.

Consider CCTTGC, for which the results for the binding signal with ELF1 and with ETV4 were 1.45 and 1.41, respectively.

For CACTCC, the binding signal with ELF1 stood at 1.34; in the experiment with ETV4, 1.28.

Regarding GGAAGT, the values for the binding signal with ELF1 and with ETV4 were 2.87 and 3.38, respectively.

Take CAACTA: the binding signal came to 1.38 with ELF1 and 1.33 with ETV4.

For the sequence TTTCGC, the values for the binding signal with ELF1 and in the experiment with ETV4 were 1.13 and 1.15, respectively.

Consider TCACTA, for which the binding signal with ELF1 was determined as 1.21; in the experiment with ETV4, 1.18.

Regarding ATTGGC, the binding signal with ELF1 turned out to be 1.13; with ETV4, 1.11.

With ATCTGC, the binding signal stood at 1.45 with ELF1 and 1.28 with ETV4.

On to CCTACC, for which the binding signal worked out at 1.28 with ELF1 and 1.25 with ETV4.

With AGGCTT, the values for the binding signal in the experiment with ELF1 and with ETV4 were 0.976 and 1.04, respectively.

Consider TACCTT, for which the binding signal with ELF1 amounted to 1.3; in the experiment with ETV4 it was 1.39.

In the case of ACGATA, the binding signal was found to be 1.19 with ELF1 and 1.15 with ETV4.

Turning to TAAGTA, the binding signal with ELF1 was found to be 1.24; in the experiment with ETV4, 1.2.

GTAATT: the binding signal worked out at 1.22 with ELF1 and 1.16 with ETV4.

For AACGCC, the results for the binding signal with ELF1 and in the experiment with ETV4 were 1.09 and 1.16, respectively.

Take GGCTAC: the results for the binding signal in the experiment with ELF1 and with ETV4 were 1.26 and 1.19, respectively.

TTATAA: the figures for the binding signal in the experiment with ELF1 and with ETV4 were 1.14 and 1.18, respectively.

As for AGTACT, the binding signal with ELF1 was 1.22; with ETV4, 1.38.

With TGATTA, the binding signal in the experiment with ELF1 was determined as 1.09; with ETV4, 1.11.

Values taken from publication PMC7862700.
